From patent publication US12419871B2, “Biomolecules involved in Alzheimer's disease” (ELECTROPHORETICS LIMITED, priority 2015, dated 2025)

Experiment: TMTcalibrator quantification of regulated proteins in AD CSF versus control
Set-up: species or system human
Conditions: CSF of AD patient versus control; non-modified peptides of each protein summed for three control and three AD cases
In the case of P16403, the “Log2 AD/Control” value is reported as 1.33.
For Q16878, the “Log2 AD/Control” value was 1.32.
With P32119 the “Log2 AD/Control” value was 0.96.
With P01303 the “Log2 AD/Control” value was 0.86.
For Q9UQM7, the “Log2 AD/Control” value was 0.81.
In the case of Q92777, the “Log2 AD/Control” value is reported as 0.86.
With Q6EMK4 the “Log2 AD/Control” value was 0.80.
In the case of P06241, the “Log2 AD/Control” value is reported as 0.79.
With Q5TZA2 the “Log2 AD/Control” value was 0.77.
With Q9BWS9 the “Log2 AD/Control” value was 0.85.
In the case of Q9HCU4, the “Log2 AD/Control” value is reported as 0.68.
With Q9BXJ9 the “Log2 AD/Control” value was 0.95.
In the case of Q03013, the “Log2 AD/Control” value is reported as 1.09.
With P17600 the “Log2 AD/Control” value was 0.95.
With O75190 the “Log2 AD/Control” value was 1.27.
For Q5SW79, the “Log2 AD/Control” value was 0.92.
For Q7LBR1, the “Log2 AD/Control” value was 0.66.
For P31040, the “Log2 AD/Control” value was 1.05.
With P49006 the “Log2 AD/Control” value was 0.95.
In the case of P24821, the “Log2 AD/Control” value is reported as 0.73.
With Q9NVJ2 the “Log2 AD/Control” value was 0.94.
In the case of Q99250, the “Log2 AD/Control” value is reported as 0.80.
With P31321 the “Log2 AD/Control” value was 1.56.
For Q53FP2, the “Log2 AD/Control” value was 0.87.
With P02100 the “Log2 AD/Control” value was 1.50.
For Q9Y4C0, the “Log2 AD/Control” value was 0.93.
For O75367, the “Log2 AD/Control” value was 0.67.
With P63092 the “Log2 AD/Control” value was 1.00.
For P23471, the “Log2 AD/Control” value was 0.90.
With P50570 the “Log2 AD/Control” value was 0.89.
For Q9BXV9, the “Log2 AD/Control” value was 0.70.
With P03950 the “Log2 AD/Control” value was −0.76.
With P07203 the “Log2 AD/Control” value was 1.13.
With P05067 the “Log2 AD/Control” value was 0.90.
In the case of P29972, the “Log2 AD/Control” value is reported as 0.90.
For Q99523, the “Log2 AD/Control” value was 0.68.
For Q13838, the “Log2 AD/Control” value was 0.85.
For Q15334, the “Log2 AD/Control” value was 0.74.
In the case of P02763, the “Log2 AD/Control” value is reported as −1.03.
For Q9HDB5, the “Log2 AD/Control” value was 0.98.
In the case of Q9UHD9, the “Log2 AD/Control” value is reported as 1.15.
For P60174, the “Log2 AD/Control” value was 1.00.
With Q709C8 the “Log2 AD/Control” value was 1.45.
With P00740 the “Log2 AD/Control” value was −0.73.
With P78371 the “Log2 AD/Control” value was 0.69.
For O43776, the “Log2 AD/Control” value was 1.37.
With Q15746 the “Log2 AD/Control” value was 1.08.
In the case of P04114, the “Log2 AD/Control” value is reported as 0.70.
In the case of Q9Y6V0, the “Log2 AD/Control” value is reported as 0.93.
In the case of P28066, the “Log2 AD/Control” value is reported as 1.08.
With P16157 the “Log2 AD/Control” value was 0.86.
For Q16186, the “Log2 AD/Control” value was 1.29.
For Q9NVH1, the “Log2 AD/Control” value was 0.94.
With Q96P47 the “Log2 AD/Control” value was 0.66.
In the case of Q99418, the “Log2 AD/Control” value is reported as 0.77.
With Q9NZH0 the “Log2 AD/Control” value was 0.97.
In the case of Q9P225, the “Log2 AD/Control” value is reported as 1.15.
With O43353 the “Log2 AD/Control” value was 0.78.
For Q13283, the “Log2 AD/Control” value was 0.68.
For P61129, the “Log2 AD/Control” value was 1.08.
In the case of Q8N8Y2, the “Log2 AD/Control” value is reported as 1.66.
For Q9Y3E1, the “Log2 AD/Control” value was −0.67.
For Q8NI60, the “Log2 AD/Control” value was 0.78.
